Laboratory results as given in patent publication US20040224408A1, “THAP proteins as nuclear receptors for chemokines and roles in transcriptional regulation, cell proliferation and cell differentiation” (published 2004).
These are yes or no findings as the source states them, for the method shown. For some of these results: In cells and extracts the contact can be indirect. Some results given as binding are weak or reduced against the parent protein; the word gives no strength. For some of these results: Where a sequence is shown, tags or fusion partners need not be part of it.

The chains behind the UniProt entries cited, without tags or fusion partners. Where a name states a change or a piece, a line headed by the entry shows the natural chain unless it says otherwise.
UniProt P02778: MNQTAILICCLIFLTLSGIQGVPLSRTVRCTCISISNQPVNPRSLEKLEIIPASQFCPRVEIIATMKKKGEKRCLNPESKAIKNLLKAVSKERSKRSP
UniProt Q99731: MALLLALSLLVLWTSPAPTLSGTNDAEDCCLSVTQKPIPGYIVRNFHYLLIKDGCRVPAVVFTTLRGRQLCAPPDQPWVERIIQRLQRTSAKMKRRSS
UniProt Q9H0W7: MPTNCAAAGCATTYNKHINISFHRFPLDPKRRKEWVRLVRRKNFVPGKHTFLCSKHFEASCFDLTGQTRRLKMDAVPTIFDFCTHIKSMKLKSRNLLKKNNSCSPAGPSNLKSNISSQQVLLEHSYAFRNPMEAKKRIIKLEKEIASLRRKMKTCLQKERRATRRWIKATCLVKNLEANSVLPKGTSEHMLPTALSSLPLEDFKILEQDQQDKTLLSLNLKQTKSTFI

Key:
[1] = biological target: T1, GST-Par4DD fusion protein (pGEX-2T-Par4DD, Par4 amino acids 250-342) (human) (UniProt Q96IZ0); assay: GST pull-down (legend of FIG. 10C)
T1 sequence: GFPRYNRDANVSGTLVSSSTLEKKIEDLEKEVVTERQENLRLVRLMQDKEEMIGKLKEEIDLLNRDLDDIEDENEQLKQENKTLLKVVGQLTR

[2] = biological target: T1, GST-Par4DD fusion protein (pGEX-2T-Par4DD, Par4 amino acids 250-342) (human); assay: in vitro GST pull-down with GST-Par4DD (FIG. 10C)
[3] = biological target: T2, GST-THAP1 fusion protein (pGEX-2T-THAP1) (human); assay: GST pull-down, immobilized GST-THAP1, in vitro translated SLC/CCL21ΔCOOH
T2 sequence: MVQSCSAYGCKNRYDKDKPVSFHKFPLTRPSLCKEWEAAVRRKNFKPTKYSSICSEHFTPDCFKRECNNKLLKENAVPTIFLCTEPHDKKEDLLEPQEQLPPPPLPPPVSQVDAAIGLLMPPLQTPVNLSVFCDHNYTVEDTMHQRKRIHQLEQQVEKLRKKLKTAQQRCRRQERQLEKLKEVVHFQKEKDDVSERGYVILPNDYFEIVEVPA

[4] = biological target: T3, human THAP1 (THanatos (death)-Associated Protein-1), full length (human) (UniProt Q9NVV9); assay: GST pull-down, immobilized GST-Par4DD, in vitro translated 35S-labelled THAP1, SDS-PAGE and fluorography
T3 sequence: T2 sequence

[5] = biological target: T2, GST-THAP1 fusion protein (pGEX-2T-THAP1) (human); assay: GST pull-down, immobilized GST-THAP1, in vitro translated 35S-labelled mutant
[6] = biological target: T1, GST-Par4DD fusion protein (pGEX-2T-Par4DD, Par4 amino acids 250-342) (human); assay: GST pull-down, immobilized GST-Par4DD, in vitro translated 35S-labelled mutant
[7] = biological target: T1, GST-Par4DD fusion protein (pGEX-2T-Par4DD, Par4 amino acids 250-342) (human); assay: GST pull-down (legend of FIG. 3B)
[8] = biological target: T1, GST-Par4DD fusion protein (pGEX-2T-Par4DD, Par4 amino acids 250-342) (human); assay: GST pull-down (legend of FIG. 7A)
[9] = biological target: human chemokine IP10/CXCL10, mature form (amino acids 22-98) (human) (UniProt P02778); assay: yeast two-hybrid, pGADT7-THAP1 with pGBKT7-CXCL10
[10] = biological target: T4, human chemokine I-TAC/CXCL11, mature form (amino acids 22-94) (human) (UniProt O14625); assay: yeast two-hybrid, pGADT7-THAP1 with pGBKT7-chemokine
T4 sequence: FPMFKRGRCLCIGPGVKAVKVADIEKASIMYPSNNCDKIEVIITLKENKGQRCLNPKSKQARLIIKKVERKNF

[11] = biological target: T5, partial PAR4 from the HEVEC two-hybrid library clones (positions 193-342) (human) (UniProt Q96IZ0); assay: yeast two-hybrid screen of the pGAD424-HEVEC cDNA library with pGBKT7-THAP1 bait (His/Ade selection)
T5 sequence: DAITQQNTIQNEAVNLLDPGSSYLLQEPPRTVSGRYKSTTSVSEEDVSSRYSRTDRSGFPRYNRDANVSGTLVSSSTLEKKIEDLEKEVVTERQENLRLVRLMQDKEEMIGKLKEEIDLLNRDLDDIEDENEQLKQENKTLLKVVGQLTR

[12] = biological target: human chemokine ELC/CCL19, mature form (amino acids 22-98) (human) (UniProt Q99731); assay: GST pull-down, SDS-polyacrylamide gel (legend of FIG. 20C)
[13] = biological target: human chemokine IP10/CXCL10, mature form (amino acids 22-98) (human) (UniProt P02778); assay: as above
[14] = biological target: T6, human chemokine MIG/CXCL9, mature form (amino acids 23-125) (human) (UniProt Q07325); assay: as above
T6 sequence: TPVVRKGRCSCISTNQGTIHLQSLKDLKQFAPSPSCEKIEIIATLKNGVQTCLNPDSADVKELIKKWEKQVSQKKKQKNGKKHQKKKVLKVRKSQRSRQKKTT

[15] = biological target: human chemokine SLC/CCL21, mature form (amino acids 24-134) (human) (UniProt O00585); assay: GST pull-down, immobilized GST-THAP1, in vitro translated 35S-labelled SLC/CCL21
[16] = biological target: human chemokine ELC/CCL19, mature form (amino acids 22-98) (human) (UniProt Q99731); assay: GST pull-down, immobilized GST-THAP1, in vitro translated 35S-labelled chemokine
[17] = biological target: T4, human chemokine I-TAC/CXCL11, mature form (amino acids 22-94) (human); assay: as above
[18] = biological target: human chemokine IP10/CXCL10, mature form (amino acids 22-98) (human) (UniProt P02778); assay: as above
[19] = biological target: T6, human chemokine MIG/CXCL9, mature form (amino acids 23-125) (human); assay: as above
[20] = biological target: human chemokine SLC/CCL21, mature form (amino acids 24-134) (human) (UniProt O00585); assay: as above
[21] = biological target: T2, GST-THAP1 fusion protein (pGEX-2T-THAP1) (human); assay: GST pull-down, immobilized GST-THAP1, in vitro translated protein
[22] = biological target: T1, GST-Par4DD fusion protein (pGEX-2T-Par4DD, Par4 amino acids 250-342) (human); assay: GST pull-down, immobilized GST-Par4DD, in vitro translated 35S-labelled THAP1ΔTHAP

Molecule: human THAP2 (from UniProt Q9H0W7 1-228)
- binding [1]: binds
- binding [2]: binds

B1: SLC/CCL21ΔCOOH deletion mutant lacking the basic carboxy-terminal extension (ligand)
chain: SDGGAQDCCLKYSQRKIPAKVVRSYRKQEPSLGCSIPAILFLPRKRSQAELCADPKELWVQQLMQHLDKTPSPQKPAQG
notes: Tested as a Gal4-AD or Gal4-BD fusion and as in vitro translated protein; also called SLC/CCL21?COOH
- binding [3]: binds

B2: GST-Par4DD fusion protein (pGEX-2T-Par4DD, Par4 amino acids 250-342) (other)
chain: T1 sequence
notes: Expressed in E. coli DH5alpha and immobilized on glutathione sepharose; not shown: Glutathione S-transferase (GST) encoded by the pGEX-2T prokaryotic expression vector (Amersham Pharmacia Biotech); N-ter
- binding [4]: binds

B3: THAP1-N3 deletion mutant (amino acids 1-192) (other)
chain: MVQSCSAYGCKNRYDKDKPVSFHKFPLTRPSLCKEWEAAVRRKNFKPTKYSSICSEHFTPDCFKRECNNKLLKENAVPTIFLCTEPHDKKEDLLEPQEQLPPPPLPPPVSQVDAAIGLLMPPLQTPVNLSVFCDHNYTVEDTMHQRKRIHQLEQQVEKLRKKLKTAQQRCRRQERQLEKLKEVVHFQKEKDD
notes: Tested as a Gal4-BD or Gal4-AD fusion, as in vitro translated 35S-labelled protein and as an EGFP fusion
- binding [5]: binds
- binding [6]: binds

B4: THAP1-C3 deletion mutant (amino acids 143-213) (other)
chain: MHQRKRIHQLEQQVEKLRKKLKTAQQRCRRQERQLEKLKEVVHFQKEKDDVSERGYVILPNDYFEIVEVPA
notes: as for B3
- binding [5]: binds
- binding [6]: binds

B5: human THAP1 (THanatos (death)-Associated Protein-1), full length (other)
chain: T2 sequence
notes: It was tested as a Gal4-BD (pGBKT7) or Gal4-AD (pGADT7); also called hTHAP1; FLJ10477
- binding [7]: binds
- binding [8]: binds
- binding [9]: binds
- binding [10]: binds
- binding [11]: binds

B6: GST-THAP1 fusion protein (pGEX-2T-THAP1) (protein, not shown: a dimerising Fc or GST)
chain: T2 sequence
- binding [12]: binds
- binding [13]: binds
- binding [14]: binds
- binding [15]: binds
- binding [16]: binds
- binding [17]: binds
- binding [18]: binds
- binding [19]: binds
- binding [20]: binds

B7: human chemokine SLC/CCL21, mature form (amino acids 24-134) (ligand)
chain: SDGGAQDCCLKYSQRKIPAKVVRSYRKQEPSLGCSIPAILFLPRKRSQAELCADPKELWVQQLMQHLDKTPSPQKPAQGCRKDRGASKTGKKGKGSKGCKRTERSQTPKGP
notes: also called SLC/6Ckine; SLC/CCL21 wild type
- binding [21]: binds

B8: human THAP3 (protein)
chain: MPKSCAARQCCNRYSSRRKQLTFHRFPFSRPELLKEWVLNIGRGNFKPKQHTVICSEHFRPECFSAFGNRKNLKHNAVPTVFAFQDPTQQVRENTDPASERGNASSSQKEKVLPEAGAGEDSPGRNMDTALEELQLPPNAEGHVKQVSPRRPQATEAVGRPTGPAGLRRTPNKQPSDHSYALLDLDSLKKKLFLTLKENEKLRKRLQAQRLVMRRMSSRLRACKGHQGLQARLGPEQQS
- binding [1]: binds
- binding [2]: binds

B9: THAP1-C1 deletion mutant (amino acids 90-213) (other)
chain: KEDLLEPQEQLPPPPLPPPVSQVDAAIGLLMPPLQTPVNLSVFCDHNYTVEDTMHQRKRIHQLEQQVEKLRKKLKTAQQRCRRQERQLEKLKEVVHFQKEKDDVSERGYVILPNDYFEIVEVPA
notes: Tested as a Gal4-BD or Gal4-AD fusion, as in vitro translated 35S-labelled protein and as an EGFP fusion; also called THAP1ΔTHAP; THAP1?THAP
- binding [8]: binds
- binding [5]: binds
- binding [6]: binds
- binding [22]: binds

B10: THAP1-C2 deletion mutant (amino acids 120-213) (other)
chain: MPPLQTPVNLSVFCDHNYTVEDTMHQRKRIHQLEQQVEKLRKKLKTAQQRCRRQERQLEKLKEVVHFQKEKDDVSERGYVILPNDYFEIVEVPA
notes: as for B3
- binding [5]: binds
- binding [6]: binds
